PubChem BioAssay AID1259254 | NCATS – 2017

Purpose: 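Genome-wide screen for genes that prevent DNA re-replication in cancer cells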 (primary screen)
System: human HCT116 colorectal cancer cells
Knock-down reagent: single siRNA against human genes
Timing: 3 days
Measured: 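Imaged Hoechst DNA stain sorts each cell into a cycle phase by DNA amount; per plate, G2 fraction set to 0% for non-targeting and 100% for GMNN siRNA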
Reading the numbers: G2 robust z-score and G2 cells, % of GMNN control: higher = more G2 cells, more excess DNA replication; raw share of cells in G2: higher = larger share of cells with G2 DNA content
Hit rule: 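Active siRNAs have a G2 robust z of 5 or more median absolute deviations over the median, which in these data means about 38% or higher of GMNN control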
This is a random part of about 59,000 reagents tested. Over the whole deposit, about 1,550 (2.6%) are marked active. 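G2 share is only a proxy for re-replication; each gene was hit by three separate siRNAs, and active genes were retested.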 Raw values vary from plate to plate and are shown uncorrected. A number with no mark means an inactive call. Not stated in the record: the amount of reagent.

Target gene,PubChem SID,G2 robust z-score,"G2 cells, % of GMNN control",raw share of cells in G2 (%)
FUT1,SID160767715,-1.4,-6.92,2.73
FUT1,SID160767724,-1.1,-4.77,1.96
FUT1,SID160767733,0.315,5.18,7.23
PCDHGA10,SID160744779,-0.97,-3.86,4.74
PCDHGA10,SID160744780,2.6,21.3,13.2
PCDHGA10,SID160744781,2.7,22,12.3
FBRSL1,SID160725528,-0.112,2.18,4.46
FBRSL1,SID160725529,3.28,26.1,13.3
FBRSL1,SID160733760,-0.728,-2.15,2.39
FBRSL1,SID160746535,0.893,9.25,7.99
FBRSL1,SID160746536,-0.117,2.14,5.48
FBRSL1,SID160746537,-0.837,-2.92,2.1
USHBP1,SID160751478,-0.93,-3.57,2.92
USHBP1,SID160751479,-0.289,0.934,3.73
USHBP1,SID160751480,-0.736,-2.21,1.74
IRS1,SID160775938,3.24,25.8,15.9
IRS1,SID160775939,7.28 (active),54.2,25.6
IRS1,SID160775940,-0.173,1.75,3.99
MAK16,SID160752405,2.06,17.4,9.91
MAK16,SID160752406,12.7 (active),92.1,30.8
MAK16,SID160752407,1.03,10.2,5.51
PSMB11,SID160732388,-0.124,2.1,2.43
PSMB11,SID160756004,-0.788,-2.58,3.06
PSMB11,SID160756005,2.2,18.4,8.82
MCL1,SID160777045,-0.252,1.19,5.94
MCL1,SID160777046,-0.425,-0.0194,5.35
MCL1,SID160777047,-0.923,-3.53,2.03
H2BC1,SID160762341,1.37,12.6,8.16
H2BC1,SID160762342,-0.75,-2.31,2.34
H2BC1,SID160762343,-0.325,0.684,3.41
SRCIN1,SID160750487,0.14,3.95,6.08
SRCIN1,SID160750488,0.205,4.41,6.23
SRCIN1,SID160750489,-1.01,-4.12,1.25
OR13G1,SID160768108,1.23,11.6,8.1
OR13G1,SID160768109,3.78,29.5,14.6
OR13G1,SID160768110,-0.42,0.00993,3.12
AP1AR,SID160743684,-0.592,-1.2,4.06
AP1AR,SID160743685,4.9,37.5,19.7
AP1AR,SID160743686,0.966,9.77,6.25
CABP7,SID160760121,0.99,9.93,6.51
CABP7,SID160760122,-0.163,1.82,3.8
CABP7,SID160760123,3.57,28.1,13.4
TEPSIN,SID160758391,-0.196,1.59,4.36
TEPSIN,SID160758392,-0.296,0.887,3.19
TEPSIN,SID160758393,-0.641,-1.55,2.53
MCU,SID160753738,-0.0345,2.72,5.24
MCU,SID160753739,0.201,4.38,4.37
MCU,SID160753740,-0.185,1.66,3.45
MGRN1,SID160735940,2.17,18.2,13.7
MGRN1,SID160735941,2.4,19.9,10.8
MGRN1,SID160735942,-0.491,-0.491,3.7
GPR37L1,SID160721875,0.093,3.62,7.14
GPR37L1,SID160721876,0.747,8.22,7.39
GPR37L1,SID160721878,0.184,4.26,4.58
DEAF1,SID160724267,0.511,6.56,5.96
DEAF1,SID160728638,1.2,11.4,10.7
DEAF1,SID160730444,-0.316,0.745,6.77
TCHHL1,SID160756508,-0.0151,2.86,5.25
TCHHL1,SID160756509,-0.596,-1.22,2.71
TCHHL1,SID160756510,1.09,10.7,6.44
PHKA1,SID160714251,-0.895,-3.33,3.71
PHKA1,SID160714253,1.37,12.6,8.1
PHKA1,SID160714254,4.28,33.1,13.4
MIDN,SID160724683,0.424,5.95,4.81
MIDN,SID160753533,0.0789,3.52,5.58
MIDN,SID160753534,-0.313,0.765,3.24
DHRS3,SID160721812,1.02,10.1,8.34
DHRS3,SID160721813,4.79,36.7,18.1
DHRS3,SID160721815,-0.423,-0.0111,4.53

Reprinted from the listing for reference:
Target gene,PubChem SID,G2 robust z-score,"G2 cells, % of GMNN control",raw share of cells in G2 (%)
FBRSL1,SID160746535,0.893,9.25,7.99
FBRSL1,SID160746536,-0.117,2.14,5.48
FBRSL1,SID160746537,-0.837,-2.92,2.1
USHBP1,SID160751478,-0.93,-3.57,2.92
USHBP1,SID160751479,-0.289,0.934,3.73
USHBP1,SID160751480,-0.736,-2.21,1.74
IRS1,SID160775938,3.24,25.8,15.9
IRS1,SID160775939,7.28 (active),54.2,25.6
IRS1,SID160775940,-0.173,1.75,3.99
MAK16,SID160752405,2.06,17.4,9.91
